Results are given in words; binding and its absence hold for the method and conditions named. Some entries that bind do so weakly or less than the wild type. Values belong to the binder of their own block, whether it stands above or below them.
What was measured:
Test in all cases: non-reducing SDS-PAGE with Western blot; lysates of BMDMs treated with OXO for 1 h and then TNF-α for 2 h; samples in 2× SDS-PAGE loading buffer without DTT, boiled 5 min; oligomers detected by immunoblot
[1] = molecular target: GSDMD-NT (activated gasdermin D) (mouse (endogenous in BMDMs)) (UniProt Q9D8T2)
[2] = molecular target: phosphorylated mixed lineage kinase domain like pseudokinase (p-MLKL) (mouse (endogenous in BMDMs)) (UniProt Q9D2Y4)
[3] = molecular target: GSDME-NT (activated gasdermin E) (mouse (endogenous in BMDMs)) (UniProt Q9Z2D3)

binding [1]: binds
B1: GSDMD-NT (activated gasdermin D) (domain or fragment, UniProt Q9D8T2 1-276)
chain: MPSAFEKVVKNVIKEVSGSRGDLIPVDSLRNSTSFRPYCLLNRKFSSSRFWKPRYSCVNLSIKDILEPSAPEPEPECFGSFKVSDVVDGNIQGRVMLSGMGEGKISGGAAVSDSSSASMNVCILRVTQKTWETMQHERHLQQPENKILQQLRSRGDDLFVVTEVLQTKEEVQITEVHSQEGSGQFTLPGALCLKGEGKGHQSRKKMVTIPAGSILAFRVAQLLIGSKWDILLVSDEKQRTFEPSSGDRKAVGQRHHGLNVLAALCSIGKQLSLLSD

binding [2]: binds
B2: phosphorylated mixed lineage kinase domain like pseudokinase (p-MLKL) (protein, UniProt Q9D2Y4 1-472)
chain: MDKLGQIIKLGQLIYEQCEKMKYCRKQCQRLGNRVHGLLQPLQRLQAQGKKNLPDDITAALGRFDEVLKEANQQIEKFSKKSHIWKFVSVGNDKILFHEVNEKLRDVWEELLLLLQVYHWNTVSDVSQPASWQQEDRQDAEEDGNENMKVILMQLQISVEEINKTLKQCSLKPTQEIPQDLQIKEIPKEHLGPPWTKLKTSKMSTIYRGEYHRSPVTIKVFNNPQAESVGIVRFTFNDEIKTMKKFDSPNILRIFGICIDQTVKPPEFSIVMEYCELGTLRELLDREKDLTMSVRSLLVLRAARGLYRLHHSETLHRNISSSSFLVAGGYQVKLAGFELSKTQNSISRTAKSTKAERSSSTIYVSPERLKNPFCLYDIKAEIYSFGIVLWEIATGKIPFEGCDSKKIRELVAEDKKQEPVGQDCPELLREIINECRAHEPSQRPSVDGRSLSGRERILERLSAVEESTDKKV
modifications: phosphorylated (site not given)

binding [3]: binds
B3: GSDME-NT (activated gasdermin E) (domain or fragment, UniProt Q9Z2D3 1-270)
chain: MFAKATRNFLKEVDAGGDLISVSHLNDSDKLQLLSLVTKKKRYWCWQRPKYQILSATLEDVLTEGHCLSPVVVESDFVKYESKCENHKSGAIGTVVGKVKLNVGGKGVVESHSSFGTLRKQEVDVQQLIQDAVKRTVNMDNLVLQQVLESRNEVLCVLTQKIMTTQKCVISEHVQSEETCGGMVGIQTKTIQVSATEDGTVTTDTNVVLEIPAATTIAYGIMELFVKQDGQFEFCLLQGKHGGFEHERKLDSVYLDPLAYREFAFLDMLD
